Article PMC11543927, “Subtleties in Clathrin heavy chain binding boxes provide selectivity among adaptor proteins of budding yeast” (Nature Communications, 2024)
These are yes or no findings as the source states them, for the method shown. For part of these data: In cells and extracts the contact can be indirect. Some binding calls cover weakened binding; strength is not graded here. Sequences can lack the tags named with a protein.

Assays:
[1] = biological target: Chc-mScarlet Arrestin and W box mutant (Arr+W) (Saccharomyces cerevisiae) (UniProt P22137); assay: FRET or BRET; acceptor photobleaching FRET in living yeast cells at endocytic patches stalled with Latrunculin A, donor mNeonGreen on Ent1/Ent2, acceptor mScarlet on Chc, 21 °C; trimmed mean FRET efficiency
[2] = biological target: Chc-mScarlet Arrestin box mutant (Q195A, I197T, K251E) (Saccharomyces cerevisiae) (UniProt P22137); assay: as above
[3] = biological target: Chc-mScarlet W-box mutant (F26A, Q155A) (Saccharomyces cerevisiae) (UniProt P22137); assay: as above
[4] = biological target: T1, Saccharomyces cerevisiae clathrin heavy chain N-terminal domain (ScChc-NTD, 1-369) (Saccharomyces cerevisiae) (UniProt P22137); assay: crystal structure; sitting drop; NTD incubated with excess peptide (between 23 and 40 fold) for 15 min at room temperature (21 °C) before setting up plates; both purified
T1 sequence: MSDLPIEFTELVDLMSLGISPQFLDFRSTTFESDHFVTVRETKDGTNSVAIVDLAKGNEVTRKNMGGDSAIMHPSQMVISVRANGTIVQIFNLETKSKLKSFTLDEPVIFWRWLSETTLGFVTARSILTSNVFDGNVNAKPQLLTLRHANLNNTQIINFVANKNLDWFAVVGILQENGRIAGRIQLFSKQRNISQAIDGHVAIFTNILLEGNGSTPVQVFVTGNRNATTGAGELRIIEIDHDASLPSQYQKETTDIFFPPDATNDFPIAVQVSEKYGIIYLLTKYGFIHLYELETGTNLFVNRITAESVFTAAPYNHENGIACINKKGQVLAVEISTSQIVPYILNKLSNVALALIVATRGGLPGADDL

[5] = biological target: Chc-mScarlet Clathrin and W box mutant (Cla+W) (Saccharomyces cerevisiae) (UniProt P22137); assay: FRET or BRET; acceptor photobleaching FRET in living yeast cells at endocytic patches stalled with Latrunculin A, donor mNeonGreen on Ent1/Ent2, acceptor mScarlet on Chc, 21 °C; trimmed mean FRET efficiency
[6] = biological target: Chc-mScarlet Clathrin, Arrestin and W box mutant (Cla+Arr+W) (Saccharomyces cerevisiae) (UniProt P22137); assay: as above
[7] = biological target: Chc-mScarlet Clathrin box mutant (K63E, I87D, Q89A, K98E) (Saccharomyces cerevisiae) (UniProt P22137); assay: as above

Measured: binding

B1: Ent1 endogenously tagged with mNeonGreen (Ent1-mNeonGreen) (natural protein, UniProt Q12518 1-454, looked up)
chain: MSKQFVRSAKNLVKGYSSTQVLVRNATSNDNHQVSKDSLIELAEKSYDSADFFEIMDMLDKRLNDKGKYWRHIAKALTVIDYLIRFGSENCVLWCRENLYIIKTLKEFRHEDDEGIDQGQIVRVKAKELTALLSDDERLNEERNMNIKGRNRKGRRRRGTGRSDENDDDLQRAISASRLTAEEDERRRKQDEDYETALQLSKEEEELKRLQDLQRMQQQQGQQQLQQPMYYDIFGNPITPEEYAQFQLQQQQQQQQQQLQQQPMYYDVFGNPITPEELAQFQQQQQLQEQQYLASMQQQQQAMSNNPFAKSEQSSSSPKRNQLVAASSPQQLQQQKQQEPLIQNRTGNQSMTDKYSKLNELLATGTGIDTFGNVGEARIPAQHTKTGTFINSQGTGYRQVSDDPNHNPFLNSQYTGLPSTSVVPTQTGYGFGNQSQQQSQNNGSNNRGYTLIDL
notes: epsin Ent1, Saccharomyces cerevisiae, endogenous locus tagged with mNeonGreen; also called Ent1p; source: endogenously tagged, S. cerevisiae MK100, in living cells
binds: [1] | [2] | [3]

B2: Apl2.1 CBM peptide (SQDLLDLF) (peptide)
peptide: SQDLLDLF
notes: also called LLDLF peptide; source: synthetic peptide, bought: NovoProLabs
binds: [4]

B3: Ent2 endogenously tagged with mNeonGreen (Ent2-mNeonGreen) (natural protein, UniProt Q05785 1-613, looked up)
chain: MSKQFVRSAKNMMKGYSSTQVLVRDATANDSRTPSIDTLDDLAQRSYDSVDFFEIMDMLDKRLNDKGKYWRHVAKSLTVLDYLVRFGSENCVLWCRENFYVIKTLREFRHENESGFDEGQIIRVKAKELVSLLNDEERLREERSMNTRNRRANRAARPRPRRQRTRSNPHDSSPSYQDDLEKALEESRITAQEDEQRRRELAQYDDEDPDFQAALQLSKEEEELKQLQELQRLQKQQQSLSQFQAPLQQQQPQQQPAYYDIFGNPISQDEYLQYQYQQDQEQAMAQQRWLDQQQEQQQLAEQQYFQQQQQAAAAASALQQQQTAANMQQQQQQPADFQQPLPTGSNNPFSMDNLERQKQEQQHAQLQRQQEEARQQQEQLKLQQLQRQQQEEAQLHQKRQEEAQLQQQQAQLLQQQAQFQQQQPLKQTRTGNQSISDKYSDLNTLLATGTGIDTFGNTGEARIPAQHTKTGTFINSQGTGYKQVTNEPKNNPFLSNQYTGLPSTNIVPTQTGYGFGNQPQSPPTNSPQQNPTGISYSQPQQQQQPQQQPQYMQNFQQQQPQYAQNFQQQPQYTQNYQQQPQYIQPHQQQQQQQQQQQQQQGYTPDQGVSLIDL
notes: epsin Ent2, Saccharomyces cerevisiae, endogenous locus tagged with mNeonGreen; also called Ent2-WT-mNeonGreen; Ent2p; source: endogenously tagged, S. cerevisiae MK100, in living cells
not listed: [2] | [4]
binds: all other assays above
